{"sequences": {"note": "Amino acid sequences for entries named in this document (tags omitted).", "UniProt Q4JK59": "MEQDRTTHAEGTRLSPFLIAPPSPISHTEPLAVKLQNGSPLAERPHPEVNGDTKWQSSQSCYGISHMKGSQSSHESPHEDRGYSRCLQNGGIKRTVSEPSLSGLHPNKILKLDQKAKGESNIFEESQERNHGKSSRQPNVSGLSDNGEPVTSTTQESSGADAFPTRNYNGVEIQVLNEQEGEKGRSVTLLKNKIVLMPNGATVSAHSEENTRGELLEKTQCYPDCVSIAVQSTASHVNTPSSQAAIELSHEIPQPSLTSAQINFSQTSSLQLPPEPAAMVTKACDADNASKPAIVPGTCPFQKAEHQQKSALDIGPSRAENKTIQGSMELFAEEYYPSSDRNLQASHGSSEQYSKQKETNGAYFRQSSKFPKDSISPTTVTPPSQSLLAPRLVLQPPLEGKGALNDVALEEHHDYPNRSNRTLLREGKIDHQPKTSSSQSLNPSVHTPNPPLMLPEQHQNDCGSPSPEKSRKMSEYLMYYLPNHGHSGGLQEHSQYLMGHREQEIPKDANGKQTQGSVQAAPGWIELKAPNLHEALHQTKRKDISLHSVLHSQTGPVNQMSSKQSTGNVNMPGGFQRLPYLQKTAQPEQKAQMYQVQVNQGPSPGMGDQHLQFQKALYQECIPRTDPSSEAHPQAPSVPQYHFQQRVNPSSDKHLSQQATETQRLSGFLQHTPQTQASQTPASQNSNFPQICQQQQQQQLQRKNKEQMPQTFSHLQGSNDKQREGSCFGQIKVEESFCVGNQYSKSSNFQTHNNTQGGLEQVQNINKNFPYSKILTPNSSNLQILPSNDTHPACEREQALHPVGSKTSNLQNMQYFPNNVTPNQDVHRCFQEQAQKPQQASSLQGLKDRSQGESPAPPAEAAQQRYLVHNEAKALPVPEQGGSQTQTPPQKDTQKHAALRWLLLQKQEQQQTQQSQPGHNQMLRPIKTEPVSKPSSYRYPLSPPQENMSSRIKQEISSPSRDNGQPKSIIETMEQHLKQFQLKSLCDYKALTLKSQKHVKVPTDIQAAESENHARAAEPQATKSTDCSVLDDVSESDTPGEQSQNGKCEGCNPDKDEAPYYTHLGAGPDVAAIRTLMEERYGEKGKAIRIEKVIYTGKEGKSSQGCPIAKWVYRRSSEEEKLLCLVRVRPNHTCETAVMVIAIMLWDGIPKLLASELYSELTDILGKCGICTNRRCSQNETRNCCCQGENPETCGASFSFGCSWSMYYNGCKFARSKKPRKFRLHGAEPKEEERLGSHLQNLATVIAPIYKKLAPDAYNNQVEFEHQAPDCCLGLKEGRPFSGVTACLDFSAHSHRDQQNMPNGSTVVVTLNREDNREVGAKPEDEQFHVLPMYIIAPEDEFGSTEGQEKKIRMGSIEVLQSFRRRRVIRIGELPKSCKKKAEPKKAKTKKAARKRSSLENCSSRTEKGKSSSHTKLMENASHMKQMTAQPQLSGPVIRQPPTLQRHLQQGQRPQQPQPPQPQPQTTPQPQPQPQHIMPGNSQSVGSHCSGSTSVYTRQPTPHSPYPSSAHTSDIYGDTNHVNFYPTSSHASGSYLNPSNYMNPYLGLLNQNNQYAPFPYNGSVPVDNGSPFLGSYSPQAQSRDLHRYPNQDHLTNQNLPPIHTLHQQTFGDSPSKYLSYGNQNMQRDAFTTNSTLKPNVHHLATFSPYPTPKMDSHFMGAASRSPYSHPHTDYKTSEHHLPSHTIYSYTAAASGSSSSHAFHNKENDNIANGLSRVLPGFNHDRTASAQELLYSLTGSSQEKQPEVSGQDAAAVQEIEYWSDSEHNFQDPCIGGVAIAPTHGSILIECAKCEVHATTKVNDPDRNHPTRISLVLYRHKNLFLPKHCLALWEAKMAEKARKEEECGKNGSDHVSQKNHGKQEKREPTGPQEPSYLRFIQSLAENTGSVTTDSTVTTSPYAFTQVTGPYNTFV", "UniProt Q04207": "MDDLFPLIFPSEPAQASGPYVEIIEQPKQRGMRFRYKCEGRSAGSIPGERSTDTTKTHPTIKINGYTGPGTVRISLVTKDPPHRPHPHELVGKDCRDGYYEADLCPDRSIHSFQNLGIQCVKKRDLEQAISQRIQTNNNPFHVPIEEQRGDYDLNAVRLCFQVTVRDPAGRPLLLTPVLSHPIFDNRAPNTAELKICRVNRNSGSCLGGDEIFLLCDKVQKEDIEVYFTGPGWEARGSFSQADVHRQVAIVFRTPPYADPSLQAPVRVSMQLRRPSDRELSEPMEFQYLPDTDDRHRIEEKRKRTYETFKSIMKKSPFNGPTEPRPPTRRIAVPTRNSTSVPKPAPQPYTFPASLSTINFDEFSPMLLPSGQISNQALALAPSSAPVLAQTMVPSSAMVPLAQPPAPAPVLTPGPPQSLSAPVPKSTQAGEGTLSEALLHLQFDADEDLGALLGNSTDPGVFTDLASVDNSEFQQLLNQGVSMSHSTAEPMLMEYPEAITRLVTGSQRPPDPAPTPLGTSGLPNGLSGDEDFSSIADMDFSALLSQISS"}, "source": "paper PMC7786974", "biological_target": "ten eleven translocation (TET) methylcytosine dioxygenase 2 (mouse (endogenous in mouse pup brain)) (UniProt Q4JK59)", "assay": "co-IP; Pierce co-IP kit; rabbit anti-TET2 antibody immobilised on AminoLink Plus coupling resin, incubated with brain tissue lysate overnight; rabbit IgG as negative control; eluate probed by Western blot; mouse pups, sham and HI (brain collected 12 h after HI)", "note": "Results are given in words; binding and its absence hold for the method and conditions named. Binding seen in cells or lysates may run through a third protein. Some results given as binding are weak or reduced against the parent protein; the word gives no strength."}
{"substance": "NF-κB subunit p65 (from UniProt Q04207 1-549)", "values": [{"measurement": "binding", "value": "binds"}]}
